# Results: the supplement of paper PMC8728848
# Some of the results follow.
# Experiments:
# Assay in all cases: glycan array binding signal (z-score within array); higher = stronger binding
# Conditions in all cases: glycan notation: IUPAC condensed, linker removed
# [1] = target: Fuc(a1-2)[Gal(a1-3)]Gal(b1-3)GlcNAc(b1-6)GalNAc
# Method in brief: (§1)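 Glycan array data were curated from 3228 arrays in the Consortium for Functional Glycomics database and kept only where the protein sequence was available. Glycan names were converted to IUPAC-condensed notation, and columns mapping to the same glycan were averaged. The binding signal is a within-array Z-score, averaged across arrays of the same protein sequence at different concentrations or buffers and across linkers. Negative Z-scores can be read as non-binding.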
# [2] = target: Fuc(a1-2)[Gal(a1-3)]Gal(b1-4)Glc
# Method in brief: as §1
# [3] = target: Fuc(a1-2)[Gal(a1-3)]Gal(b1-4)GlcNAc
# Method in brief: as §1
# [4] = target: Fuc(a1-2)[Gal(a1-3)]Gal(b1-4)GlcNAc(b1-2)Man
# Method in brief: as §1
# [5] = target: Fuc(a1-2)[Gal(a1-3)]Gal(b1-4)GlcNAc(b1-2)Man(a1-3)[Fuc(a1-2)[Gal(a1-3)]Gal(b1-4)GlcNAc(b1-2)Man(a1-6)]Man(b1-4)GlcNAc(b1-4)GlcNAc
# Method in brief: as §1
# [6] = target: Fuc(a1-2)[Gal(a1-3)]Gal(b1-4)GlcNAc(b1-2)Man(a1-3)[Fuc(a1-2)[Gal(a1-3)]Gal(b1-4)GlcNAc(b1-2)Man(a1-6)]Man(b1-4)GlcNAc(b1-4)[Fuc(a1-6)]GlcNAc
# Method in brief: as §1
# [7] = target: Fuc(a1-2)[Gal(a1-3)]Gal(b1-4)GlcNAc(b1-3)GalNAc
# Method in brief: as §1
# [8] = target: Fuc(a1-2)[Gal(a1-3)]Gal(b1-4)GlcNAc(b1-3)[Fuc(a1-2)[Gal(a1-3)]Gal(b1-4)GlcNAc(b1-6)]GalNAc
# Method in brief: as §1
# [9] = target: Fuc(a1-2)[Gal(a1-3)]Gal(b1-4)GlcNAc(b1-6)GalNAc
# Method in brief: as §1
# [10] = target: Fuc(a1-2)[Gal(a1-3)]Gal(b1-4)[Fuc(a1-3)]Glc
# Method in brief: as §1
# [11] = target: Fuc(a1-2)[Gal(a1-3)]Gal(b1-4)[Fuc(a1-3)]GlcNAc
# Method in brief: as §1
# [12] = target: Fuc(a1-2)[Gal(a1-3)]Gal(b1-4)[Fuc(a1-3)]GlcNAc(b1-3)GalNAc
# Method in brief: as §1
# [13] = target: Fuc(a1-2)[Gal(a1-4)]Gal(b1-4)GlcNAc
# Method in brief: as §1
# [14] = target: Fuc(a1-2)[GalNAc(a1-3)]Gal
# Method in brief: as §1
# [15] = target: Fuc(a1-2)[GalNAc(a1-3)]Gal(b1-3)GalNAc(a1-3)[Fuc(a1-2)]Gal(b1-4)GlcNAc
# Method in brief: as §1
# [16] = target: Fuc(a1-2)[GalNAc(a1-3)]Gal(b1-3)GalNAc(b1-3)Gal(a1-4)Gal(b1-4)Glc
# Method in brief: as §1
# [17] = target: Fuc(a1-2)[GalNAc(a1-3)]Gal(b1-3)GlcNAc
# Method in brief: as §1
# [18] = target: Fuc(a1-2)[GalNAc(a1-3)]Gal(b1-3)GlcNAc(b1-2)Man(a1-3)[Fuc(a1-2)[GalNAc(a1-3)]Gal(b1-3)GlcNAc(b1-2)Man(a1-6)]Man(b1-4)GlcNAc(b1-4)GlcNAc
# Method in brief: as §1
# [19] = target: Fuc(a1-2)[GalNAc(a1-3)]Gal(b1-3)GlcNAc(b1-2)Man(a1-3)[Fuc(a1-2)[GalNAc(a1-3)]Gal(b1-3)GlcNAc(b1-2)Man(a1-6)]Man(b1-4)GlcNAc(b1-4)[Fuc(a1-6)]GlcNAc
# Method in brief: as §1
# [20] = target: Fuc(a1-2)[GalNAc(a1-3)]Gal(b1-3)GlcNAc(b1-3)GalNAc
# Method in brief: as §1
# [21] = target: Fuc(a1-2)[GalNAc(a1-3)]Gal(b1-3)GlcNAc(b1-6)GalNAc
# Method in brief: as §1
# [22] = target: Fuc(a1-2)[GalNAc(a1-3)]Gal(b1-4)Glc
# Method in brief: as §1
# [23] = target: Fuc(a1-2)[GalNAc(a1-3)]Gal(b1-4)GlcNAc
# Method in brief: as §1
# [24] = target: Fuc(a1-2)[GalNAc(a1-3)]Gal(b1-4)GlcNAc(b1-2)Man
# Method in brief: as §1
# [25] = target: Fuc(a1-2)[GalNAc(a1-3)]Gal(b1-4)GlcNAc(b1-2)Man(a1-3)[Fuc(a1-2)[GalNAc(a1-3)]Gal(b1-4)GlcNAc(b1-2)Man(a1-6)]Man(b1-4)GlcNAc(b1-4)GlcNAc
# Method in brief: as §1
# [26] = target: Fuc(a1-2)[GalNAc(a1-3)]Gal(b1-4)GlcNAc(b1-2)Man(a1-3)[Fuc(a1-2)[GalNAc(a1-3)]Gal(b1-4)GlcNAc(b1-2)Man(a1-6)]Man(b1-4)GlcNAc(b1-4)[Fuc(a1-6)]GlcNAc
# Method in brief: as §1
# [27] = target: Fuc(a1-2)[GalNAc(a1-3)]Gal(b1-4)GlcNAc(b1-3)Gal(b1-4)GlcNAc
# Method in brief: as §1
# [28] = target: Fuc(a1-2)[GalNAc(a1-3)]Gal(b1-4)GlcNAc(b1-3)Gal(b1-4)GlcNAc(b1-3)Gal(b1-4)GlcNAc
# Method in brief: as §1
# [29] = target: Fuc(a1-2)[GalNAc(a1-3)]Gal(b1-4)GlcNAc(b1-3)GalNAc
# Method in brief: as §1
# [30] = target: Fuc(a1-2)[GalNAc(a1-3)]Gal(b1-4)GlcNAc(b1-3)[Fuc(a1-2)[GalNAc(a1-3)]Gal(b1-4)GlcNAc(b1-6)]GalNAc
# Method in brief: as §1
# [31] = target: Fuc(a1-2)[GalNAc(a1-3)]Gal(b1-4)GlcNAc(b1-6)GalNAc
# Method in brief: as §1
# [32] = target: Fuc(a1-2)[GalNAc(a1-3)]Gal(b1-4)[Fuc(a1-3)]GlcNAc
# Method in brief: as §1
# [33] = target: Fuc(a1-2)[GalNAc(a1-3)]Gal(b1-4)[Fuc(a1-3)]GlcNAc(b1-3)GalNAc
# Method in brief: as §1
# [34] = target: Fuc(a1-2)[GalNAc(a1-4)]Gal(b1-4)GlcNAc
# Method in brief: as §1
# [35] = target: Fuc(a1-2)[GalNAc(b1-3)]Gal
# Method in brief: as §1
# Fuc(a1-3)GlcNAc = target: Fuc(a1-3)GlcNAc
# Method in brief: as §1
# [36] = target: Fuc(a1-3)[Gal(b1-4)]Glc6S
# Method in brief: as §1
# [37] = target: Fuc(a1-3)[Gal(b1-4)]GlcNAc
# Method in brief: as §1
# [38] = target: Fuc(a1-3)[Gal(b1-4)]GlcNAc(b1-2)Man
# Method in brief: as §1
# [39] = target: Fuc(a1-3)[Gal(b1-4)]GlcNAc(b1-2)Man(a1-3)[Fuc(a1-3)[Gal(b1-4)]GlcNAc(b1-2)Man(a1-6)]Man(b1-4)GlcNAc(b1-4)GlcNAc
# Method in brief: as §1
# [40] = target: Fuc(a1-3)[Gal(b1-4)]GlcNAc(b1-2)Man(a1-3)[Fuc(a1-3)[Gal(b1-4)]GlcNAc(b1-2)Man(a1-6)]Man(b1-4)GlcNAc(b1-4)[Fuc(a1-6)]GlcNAc
# Method in brief: as §1
# [41] = target: Fuc(a1-3)[Gal(b1-4)]GlcNAc(b1-3)Gal(b1-3)[Fuc(a1-4)]GlcNAc
# Method in brief: as §1
# [42] = target: Fuc(a1-3)[Gal(b1-4)]GlcNAc(b1-3)Gal(b1-4)[Fuc(a1-3)]GlcNAc
# Method in brief: as §1
# [43] = target: Fuc(a1-3)[Gal(b1-4)]GlcNAc(b1-3)Gal(b1-4)[Fuc(a1-3)]GlcNAc(b1-3)Gal(b1-4)[Fuc(a1-3)]GlcNAc
# Method in brief: as §1
# [44] = target: Fuc(a1-3)[Gal(b1-4)]GlcNAc(b1-3)GalNAc
# Method in brief: as §1
# [45] = target: Fuc(a1-3)[Gal(b1-4)]GlcNAc(b1-4)Gal(b1-4)[Fuc(a1-3)]GlcNAc
# Method in brief: as §1
# [46] = target: Fuc(a1-3)[Gal(b1-4)]GlcNAc(b1-4)Gal(b1-4)[Fuc(a1-3)]GlcNAc(b1-4)Gal(b1-4)[Fuc(a1-3)]GlcNAc
# Method in brief: as §1
# [47] = target: Fuc(a1-3)[Gal(b1-4)]GlcNAc(b1-6)GalNAc
# Method in brief: as §1
# [48] = target: Fuc(a1-3)[Gal(b1-4)]GlcNAc(b1-6)[Gal(b1-3)GlcNAc(b1-3)]Gal(b1-4)Glc
# Method in brief: as §1
# [49] = target: Fuc(a1-3)[Gal(b1-4)]GlcNAc(b1-6)[Neu5Ac(a2-3)Gal(b1-3)]GalNAc
# Method in brief: as §1
# [50] = target: Fuc(a1-3)[Gal(b1-4)]GlcNAc6S
# Method in brief: as §1
# [51] = target: Fuc(a1-3)[Gal3S(b1-4)]Glc
# Method in brief: as §1
# [52] = target: Fuc(a1-3)[Gal3S(b1-4)]GlcNAc
# Method in brief: as §1
# [53] = target: Fuc(a1-3)[Gal3S(b1-4)]GlcNAc6S
# Method in brief: as §1
# [54] = target: Fuc(a1-3)[GalNAc(b1-4)]GlcNAc
# Method in brief: as §1
# [55] = target: Fuc(a1-3)[GalNAc(b1-4)]GlcNAc6S
# Method in brief: as §1
# Fuc(a1-4)GlcNAc = target: Fuc(a1-4)GlcNAc
# Method in brief: as §1
# Fuc(b1-3)GlcNAc = target: Fuc(b1-3)GlcNAc
# Method in brief: as §1
# Gal(a1-2)Gal = target: Gal(a1-2)Gal
# Method in brief: as §1
# Gal(a1-3)Gal = target: Gal(a1-3)Gal
# Method in brief: as §1
binder,measurement,setting,value
KILRGVCKKIMRTFLRRISKDILTGKK [NK2 (Sus scrofa)],glycan array binding signal (z-score),[1],1.05
same,glycan array binding signal (z-score),[2],0.328
same,glycan array binding signal (z-score),[3],-0.19
same,glycan array binding signal (z-score),[4],-1.38
same,glycan array binding signal (z-score),[5],0.87
same,glycan array binding signal (z-score),[6],-0.152
same,glycan array binding signal (z-score),[7],-0.435
same,glycan array binding signal (z-score),[8],0.063
same,glycan array binding signal (z-score),[9],0.282
same,glycan array binding signal (z-score),[10],-0.572
same,glycan array binding signal (z-score),[11],0.425
same,glycan array binding signal (z-score),[12],0.783
same,glycan array binding signal (z-score),[13],0.293
same,glycan array binding signal (z-score),[14],-0.389
same,glycan array binding signal (z-score),[15],0.266
same,glycan array binding signal (z-score),[16],0.467
same,glycan array binding signal (z-score),[17],0.659
same,glycan array binding signal (z-score),[18],-0.288
same,glycan array binding signal (z-score),[19],0.245
same,glycan array binding signal (z-score),[20],-0.472
same,glycan array binding signal (z-score),[21],-1.01
same,glycan array binding signal (z-score),[22],-0.127
same,glycan array binding signal (z-score),[23],-0.655
same,glycan array binding signal (z-score),[24],1.39
same,glycan array binding signal (z-score),[25],-0.787
same,glycan array binding signal (z-score),[26],0.216
same,glycan array binding signal (z-score),[27],0.41
same,glycan array binding signal (z-score),[28],-0.003
same,glycan array binding signal (z-score),[29],-0.327
same,glycan array binding signal (z-score),[30],1.67
same,glycan array binding signal (z-score),[31],-1.05
same,glycan array binding signal (z-score),[32],0.738
same,glycan array binding signal (z-score),[33],0.413
same,glycan array binding signal (z-score),[34],-1.07
same,glycan array binding signal (z-score),[35],-0.991
same,glycan array binding signal (z-score),Fuc(a1-3)GlcNAc,-0.228
same,glycan array binding signal (z-score),[36],0.197
same,glycan array binding signal (z-score),[37],-0.662
same,glycan array binding signal (z-score),[38],0.181
same,glycan array binding signal (z-score),[39],-0.56
same,glycan array binding signal (z-score),[40],1.17
same,glycan array binding signal (z-score),[41],-0.574
same,glycan array binding signal (z-score),[42],-0.101
same,glycan array binding signal (z-score),[43],0.876
same,glycan array binding signal (z-score),[44],0.755
same,glycan array binding signal (z-score),[45],-0.45
same,glycan array binding signal (z-score),[46],-0.525
same,glycan array binding signal (z-score),[47],-0.254
same,glycan array binding signal (z-score),[48],0.544
same,glycan array binding signal (z-score),[49],0.714
same,glycan array binding signal (z-score),[50],0.501
same,glycan array binding signal (z-score),[51],0.232
same,glycan array binding signal (z-score),[52],0.36
same,glycan array binding signal (z-score),[53],1.58
same,glycan array binding signal (z-score),[54],0.101
same,glycan array binding signal (z-score),[55],0.323
same,glycan array binding signal (z-score),Fuc(a1-4)GlcNAc,-0.394
same,glycan array binding signal (z-score),Fuc(b1-3)GlcNAc,-0.41
same,glycan array binding signal (z-score),Gal(a1-2)Gal,-0.55
same,glycan array binding signal (z-score),Gal(a1-3)Gal,0.016

# Reformatted with bars between the fields: part of the list above
binder | measurement | setting | value
KILRGVCKKIMRTFLRRISKDILTGKK [NK2 (Sus scrofa)] | glycan array binding signal (z-score) | [4] | -1.38
same | glycan array binding signal (z-score) | [8] | 0.063
same | glycan array binding signal (z-score) | [10] | -0.572
same | glycan array binding signal (z-score) | [13] | 0.293
same | glycan array binding signal (z-score) | [16] | 0.467
same | glycan array binding signal (z-score) | [21] | -1.01
same | glycan array binding signal (z-score) | [35] | -0.991
same | glycan array binding signal (z-score) | Fuc(a1-3)GlcNAc | -0.228
same | glycan array binding signal (z-score) | [36] | 0.197
same | glycan array binding signal (z-score) | [39] | -0.56
same | glycan array binding signal (z-score) | [42] | -0.101
same | glycan array binding signal (z-score) | [51] | 0.232
same | glycan array binding signal (z-score) | Fuc(a1-4)GlcNAc | -0.394
same | glycan array binding signal (z-score) | Fuc(b1-3)GlcNAc | -0.41
same | glycan array binding signal (z-score) | Gal(a1-2)Gal | -0.55
